Some of the results follow. Residues, ends and D or L forms follow the SMILES beside them. *: point of attachment. Cbz = O=C(OCc1ccccc1)*
Key:
Assay in all cases: log2 fold change, soluble protein after heating vs DMSO (PISA); higher = thermal stabilisation; K562 cells, 10 uM, 30 min; active = over 0.2 and 3.5 SD of the protein, either way, in both replicates (recomputed)
[1] = compound: C#Cc1cccc(Nc2ncnc3cc(OCCOC)c(OCCOC)cc23)c1 [erlotinib]
In short: (§1)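 Values are thermal stability changes relative to control samples and are taken from duplicates. They are stated as log2 fold changes. Before quantification by TMTpro 16plex LC-MS/MS with equalised channel sums, K562 cells at 2×10^6 cells/mL were treated with 10 μM compound for 30 min, heated in aliquots for 3 min across 48°C-58°C, pooled, extracted in PBS with 0.5% NP-40 at 4°C, and centrifuged at 21,000xg for 90 min to give the soluble supernatant.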

Amino acid sequences for entries named in this document (tags omitted). A change or cut given only in a name is not applied to a line headed by its entry.
UniProt Q0VDG4: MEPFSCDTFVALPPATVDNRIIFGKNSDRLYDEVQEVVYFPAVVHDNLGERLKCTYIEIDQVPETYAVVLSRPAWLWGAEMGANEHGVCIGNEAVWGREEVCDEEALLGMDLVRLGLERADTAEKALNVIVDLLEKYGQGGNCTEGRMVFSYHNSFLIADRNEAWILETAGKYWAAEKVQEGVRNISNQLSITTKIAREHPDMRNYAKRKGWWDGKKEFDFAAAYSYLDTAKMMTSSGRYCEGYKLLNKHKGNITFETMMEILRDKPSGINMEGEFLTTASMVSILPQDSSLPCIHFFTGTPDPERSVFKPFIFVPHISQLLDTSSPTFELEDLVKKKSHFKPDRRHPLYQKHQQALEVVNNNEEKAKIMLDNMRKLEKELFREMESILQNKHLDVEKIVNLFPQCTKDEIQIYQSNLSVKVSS
UniProt Q96I15: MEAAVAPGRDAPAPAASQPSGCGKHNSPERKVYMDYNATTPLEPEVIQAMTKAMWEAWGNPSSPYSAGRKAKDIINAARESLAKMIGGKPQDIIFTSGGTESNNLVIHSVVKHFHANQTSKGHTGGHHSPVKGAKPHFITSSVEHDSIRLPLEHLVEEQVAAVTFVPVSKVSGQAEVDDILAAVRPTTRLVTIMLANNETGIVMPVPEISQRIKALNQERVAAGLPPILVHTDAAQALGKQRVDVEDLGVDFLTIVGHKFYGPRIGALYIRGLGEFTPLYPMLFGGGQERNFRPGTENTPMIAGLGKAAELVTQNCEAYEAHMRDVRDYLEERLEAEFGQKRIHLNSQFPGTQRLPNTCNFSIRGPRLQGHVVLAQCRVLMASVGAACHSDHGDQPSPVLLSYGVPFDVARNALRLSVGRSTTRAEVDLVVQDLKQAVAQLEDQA
UniProt O14828: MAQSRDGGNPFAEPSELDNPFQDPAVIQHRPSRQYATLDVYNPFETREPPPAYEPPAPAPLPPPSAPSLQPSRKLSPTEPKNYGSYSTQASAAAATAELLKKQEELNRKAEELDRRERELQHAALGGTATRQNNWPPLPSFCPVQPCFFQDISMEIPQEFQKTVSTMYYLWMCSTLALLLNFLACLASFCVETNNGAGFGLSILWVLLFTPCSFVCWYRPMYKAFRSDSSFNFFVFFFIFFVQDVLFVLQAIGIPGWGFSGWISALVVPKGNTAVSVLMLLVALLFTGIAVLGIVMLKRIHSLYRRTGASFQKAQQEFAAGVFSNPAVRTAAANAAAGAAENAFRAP
UniProt O00422: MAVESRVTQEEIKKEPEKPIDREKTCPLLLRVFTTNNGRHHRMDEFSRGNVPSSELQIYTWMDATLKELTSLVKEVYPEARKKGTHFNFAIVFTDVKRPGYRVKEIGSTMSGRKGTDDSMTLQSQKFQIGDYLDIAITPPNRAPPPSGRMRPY
UniProt P25815: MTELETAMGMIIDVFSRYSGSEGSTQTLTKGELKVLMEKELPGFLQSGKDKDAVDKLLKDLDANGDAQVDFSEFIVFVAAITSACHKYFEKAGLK
UniProt Q9BW04: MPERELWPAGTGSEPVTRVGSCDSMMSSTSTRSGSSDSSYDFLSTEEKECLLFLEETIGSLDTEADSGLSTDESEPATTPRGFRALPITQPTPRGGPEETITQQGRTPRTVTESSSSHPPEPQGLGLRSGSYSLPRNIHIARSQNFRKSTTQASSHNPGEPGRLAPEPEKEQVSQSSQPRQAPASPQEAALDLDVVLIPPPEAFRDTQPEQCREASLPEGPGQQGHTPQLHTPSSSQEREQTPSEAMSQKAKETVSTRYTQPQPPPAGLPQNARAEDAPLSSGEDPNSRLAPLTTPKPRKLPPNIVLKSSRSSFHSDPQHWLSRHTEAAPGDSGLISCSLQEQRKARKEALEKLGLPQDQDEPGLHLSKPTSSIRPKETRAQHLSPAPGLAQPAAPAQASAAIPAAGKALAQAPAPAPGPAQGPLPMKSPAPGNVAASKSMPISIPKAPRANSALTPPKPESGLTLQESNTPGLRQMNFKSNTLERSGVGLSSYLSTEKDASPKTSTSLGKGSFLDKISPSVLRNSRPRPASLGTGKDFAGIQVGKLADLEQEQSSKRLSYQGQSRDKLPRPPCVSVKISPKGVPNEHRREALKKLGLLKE
UniProt O95197: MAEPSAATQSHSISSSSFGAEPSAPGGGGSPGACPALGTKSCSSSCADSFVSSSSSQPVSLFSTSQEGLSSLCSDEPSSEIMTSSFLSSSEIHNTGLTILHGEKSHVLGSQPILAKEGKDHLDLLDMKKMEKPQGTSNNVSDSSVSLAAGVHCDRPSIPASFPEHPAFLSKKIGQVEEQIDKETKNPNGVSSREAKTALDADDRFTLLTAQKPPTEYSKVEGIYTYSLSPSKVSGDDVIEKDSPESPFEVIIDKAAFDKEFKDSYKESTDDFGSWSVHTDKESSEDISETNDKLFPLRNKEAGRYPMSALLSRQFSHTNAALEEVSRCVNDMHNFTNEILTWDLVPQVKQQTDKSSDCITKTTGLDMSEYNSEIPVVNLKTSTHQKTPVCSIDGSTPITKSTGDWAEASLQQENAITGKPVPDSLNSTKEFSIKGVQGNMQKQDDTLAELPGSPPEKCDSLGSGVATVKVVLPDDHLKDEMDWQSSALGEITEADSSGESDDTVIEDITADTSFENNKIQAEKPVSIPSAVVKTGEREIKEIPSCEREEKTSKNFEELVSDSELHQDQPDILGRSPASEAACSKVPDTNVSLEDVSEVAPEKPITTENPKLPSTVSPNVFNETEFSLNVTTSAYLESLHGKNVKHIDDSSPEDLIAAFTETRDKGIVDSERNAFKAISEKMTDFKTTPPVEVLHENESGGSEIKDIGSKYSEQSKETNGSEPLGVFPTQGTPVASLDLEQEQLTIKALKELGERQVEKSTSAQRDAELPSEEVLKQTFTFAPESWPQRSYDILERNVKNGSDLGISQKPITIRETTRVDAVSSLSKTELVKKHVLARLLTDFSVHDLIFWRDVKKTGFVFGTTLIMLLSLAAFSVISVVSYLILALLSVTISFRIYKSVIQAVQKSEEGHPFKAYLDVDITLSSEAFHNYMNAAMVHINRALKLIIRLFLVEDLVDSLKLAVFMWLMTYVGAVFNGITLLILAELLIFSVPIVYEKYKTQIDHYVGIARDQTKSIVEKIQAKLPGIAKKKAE
UniProt A3KN83: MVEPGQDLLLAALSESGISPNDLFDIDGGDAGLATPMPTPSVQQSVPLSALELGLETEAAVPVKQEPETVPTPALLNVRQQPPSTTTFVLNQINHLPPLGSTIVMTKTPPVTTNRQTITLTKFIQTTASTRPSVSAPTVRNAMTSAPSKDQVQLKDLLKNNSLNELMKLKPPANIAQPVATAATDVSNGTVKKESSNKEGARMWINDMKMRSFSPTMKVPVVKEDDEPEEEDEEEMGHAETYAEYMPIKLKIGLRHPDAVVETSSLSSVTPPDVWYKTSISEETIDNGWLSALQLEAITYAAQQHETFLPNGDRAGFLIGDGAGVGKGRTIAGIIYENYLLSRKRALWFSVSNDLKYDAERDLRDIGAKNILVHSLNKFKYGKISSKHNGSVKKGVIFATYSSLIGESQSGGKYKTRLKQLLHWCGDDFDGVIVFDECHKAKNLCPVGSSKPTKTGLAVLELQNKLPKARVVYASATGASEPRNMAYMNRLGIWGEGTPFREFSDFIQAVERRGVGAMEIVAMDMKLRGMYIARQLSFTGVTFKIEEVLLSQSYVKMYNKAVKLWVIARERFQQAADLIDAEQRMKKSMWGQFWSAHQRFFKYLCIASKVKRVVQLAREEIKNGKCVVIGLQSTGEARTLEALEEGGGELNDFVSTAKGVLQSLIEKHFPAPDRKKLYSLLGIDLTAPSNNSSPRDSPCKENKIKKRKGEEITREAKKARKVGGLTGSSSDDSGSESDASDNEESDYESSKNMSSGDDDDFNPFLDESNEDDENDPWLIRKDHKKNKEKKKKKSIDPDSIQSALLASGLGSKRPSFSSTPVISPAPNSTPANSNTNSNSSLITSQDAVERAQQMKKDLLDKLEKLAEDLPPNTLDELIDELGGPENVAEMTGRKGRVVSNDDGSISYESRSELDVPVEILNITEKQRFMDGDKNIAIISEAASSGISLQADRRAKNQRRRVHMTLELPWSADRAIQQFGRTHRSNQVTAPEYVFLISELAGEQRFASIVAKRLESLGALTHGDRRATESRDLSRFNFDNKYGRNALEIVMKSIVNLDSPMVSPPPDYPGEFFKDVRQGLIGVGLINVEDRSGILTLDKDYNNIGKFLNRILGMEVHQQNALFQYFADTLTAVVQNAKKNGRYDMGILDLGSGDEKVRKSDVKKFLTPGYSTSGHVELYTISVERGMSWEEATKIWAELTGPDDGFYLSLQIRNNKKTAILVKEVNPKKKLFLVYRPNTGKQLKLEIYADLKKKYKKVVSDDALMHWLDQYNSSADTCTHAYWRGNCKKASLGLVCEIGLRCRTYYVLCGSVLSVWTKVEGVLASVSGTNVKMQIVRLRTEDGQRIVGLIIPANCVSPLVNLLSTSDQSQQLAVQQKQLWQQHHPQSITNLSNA
UniProt Q99584: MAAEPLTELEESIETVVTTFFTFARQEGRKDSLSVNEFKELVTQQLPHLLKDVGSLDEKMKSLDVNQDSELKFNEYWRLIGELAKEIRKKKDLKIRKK
UniProt Q96BU1: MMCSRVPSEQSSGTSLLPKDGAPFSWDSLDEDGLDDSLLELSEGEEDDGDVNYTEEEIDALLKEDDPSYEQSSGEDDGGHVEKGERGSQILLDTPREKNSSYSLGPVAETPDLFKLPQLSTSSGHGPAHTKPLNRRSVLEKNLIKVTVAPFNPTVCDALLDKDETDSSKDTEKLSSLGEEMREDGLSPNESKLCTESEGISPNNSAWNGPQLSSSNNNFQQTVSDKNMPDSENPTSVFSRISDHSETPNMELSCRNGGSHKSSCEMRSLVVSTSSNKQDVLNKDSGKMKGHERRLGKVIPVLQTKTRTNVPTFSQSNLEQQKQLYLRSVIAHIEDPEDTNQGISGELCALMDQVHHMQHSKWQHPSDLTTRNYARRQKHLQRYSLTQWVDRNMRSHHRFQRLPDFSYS
UniProt Q6NW29: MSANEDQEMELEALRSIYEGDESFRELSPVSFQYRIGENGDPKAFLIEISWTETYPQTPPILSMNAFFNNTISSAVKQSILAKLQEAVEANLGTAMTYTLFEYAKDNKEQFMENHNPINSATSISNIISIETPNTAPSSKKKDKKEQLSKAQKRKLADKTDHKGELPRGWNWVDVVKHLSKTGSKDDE
UniProt Q9NQC3: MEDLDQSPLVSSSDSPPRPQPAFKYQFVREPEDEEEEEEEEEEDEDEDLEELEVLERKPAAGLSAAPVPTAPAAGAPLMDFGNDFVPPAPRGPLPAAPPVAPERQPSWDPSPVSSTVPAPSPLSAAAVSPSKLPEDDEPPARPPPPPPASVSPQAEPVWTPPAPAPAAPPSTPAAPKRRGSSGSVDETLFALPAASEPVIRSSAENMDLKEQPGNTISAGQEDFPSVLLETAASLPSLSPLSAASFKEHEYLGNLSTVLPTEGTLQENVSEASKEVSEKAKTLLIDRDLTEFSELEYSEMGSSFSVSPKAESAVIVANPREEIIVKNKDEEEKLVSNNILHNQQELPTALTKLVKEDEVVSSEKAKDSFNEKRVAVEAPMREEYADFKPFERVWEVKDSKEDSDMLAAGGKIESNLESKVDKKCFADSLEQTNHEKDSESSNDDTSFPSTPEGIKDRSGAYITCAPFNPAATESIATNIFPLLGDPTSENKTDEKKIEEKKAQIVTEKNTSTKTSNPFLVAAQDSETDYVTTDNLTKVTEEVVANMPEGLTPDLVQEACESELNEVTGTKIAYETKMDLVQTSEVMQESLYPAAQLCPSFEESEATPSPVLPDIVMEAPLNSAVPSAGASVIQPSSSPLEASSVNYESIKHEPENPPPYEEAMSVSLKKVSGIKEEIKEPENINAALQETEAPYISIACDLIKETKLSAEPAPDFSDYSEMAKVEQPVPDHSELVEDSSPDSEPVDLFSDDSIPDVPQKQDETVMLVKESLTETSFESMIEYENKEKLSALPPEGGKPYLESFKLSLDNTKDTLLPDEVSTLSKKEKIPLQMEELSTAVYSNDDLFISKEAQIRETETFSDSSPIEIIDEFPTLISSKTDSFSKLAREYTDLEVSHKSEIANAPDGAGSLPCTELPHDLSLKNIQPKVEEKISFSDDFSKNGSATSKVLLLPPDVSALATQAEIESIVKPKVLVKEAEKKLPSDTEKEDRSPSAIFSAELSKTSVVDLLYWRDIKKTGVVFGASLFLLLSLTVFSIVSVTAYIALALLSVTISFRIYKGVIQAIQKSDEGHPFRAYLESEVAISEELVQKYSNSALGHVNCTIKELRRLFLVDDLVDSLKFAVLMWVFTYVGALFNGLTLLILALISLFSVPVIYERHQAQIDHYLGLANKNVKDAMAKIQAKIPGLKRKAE

[2] = compound: C/C(=N\NC(=O)C1=CC(=CC=C1)S(=O)(=O)N2CCOCC2)/C3=C(C=CC(=C3)Cl)O
In short: as §1

[3] = compound: C1=CC(=C(C=C1Cl)C2=NC3=NC=CN=C3C(=N2)NC4=CC=NC=C4)F
In short: as §1

[4] = compound: C1=CC(=CC=C1C2=NC3=C(N2)C=C(C=C3)C(=O)N)OC4=CC=C(C=C4)Cl
In short: as §1

[5] = compound: C1=CC2=C(C=CC(=C2)/C=C\3/C(=O)NC(=NCC4=CC=CS4)S3)N=C1
In short: as §1

[6] = compound: C1=CC2=NC=CN=C2C=C1/C=C/3\C(=O)NC(=O)S3
In short: as §1

[7] = compound: C1=CC=C(C=C1)C2=NC(=C(N2)C3=CC=NC=C3)C4=CC(=C(C=C4)Cl)O
In short: as §1

[8] = compound: C1=CC=C2C(=C1)C3=NNC4=CC=CC(=C43)C2=O
In short: as §1

[9] = compound: C1CCN(C1)C(=O)NC2=CC=CC(=C2)NC3=NC=C(C(=N3)NCCC4=CN=CN4)Br
In short: as §1

[10] = compound: C1CN(CCC1(CC2=CC=C(C=C2)Cl)N)C3=NC=NC4=C3C=CN4
In short: as §1

[11] = compound: C1COCCN1CCN2C3=CC=CC=C3N=C2NC(=O)C4=CC(=CC=C4)[N+](=O)[O-] [IRAK-1-4 Inhibitor I]
In short: as §1

[12] = compound: C=CC(=O)N1CCC[C@@H](n2nc(-c3ccc(Oc4ccccc4)cc3)c3c(N)ncnc32)C1 [ibrutinib]
In short: as §1

[13] = compound: CC(=O)c1cnc2ccc(-c3cc(Cl)c(O)c(Cl)c3)nc2c1N[C@H]1CC[C@H](CN(C)C)CC1
In short: as §1

[14] = compound: CC(C)(C)Cn1c(N)nc2ccc(-c3[nH]c(C(C)(C)C)nc3-c3ccc(F)cc3)nc21 [ralimetinib]
In short: as §1

[15] = compound: CC(C)(O)CC(=O)NCCn1ccc2ncnc(Nc3ccc(Oc4cccc(C(F)(F)F)c4)c(Cl)c3)c21
In short: as §1

[16] = compound: CC(C)C1=C2N=C(C=C(N2N=C1)NCC3=CC=CC=C3)NCCCCCCN
In short: as §1

[17] = compound: CC(C)C[C@@H](C=O)NC(=O)[C@H](CC(C)C)NC(=O)[C@H](CC(C)C)NC(=O)OCc1ccccc1
In short: as §1

[18] = compound: CC(C)N(C[C@H]1O[C@@H](n2cnc3c(N)ncnc32)[C@H](O)[C@@H]1O)[C@H]1C[C@@H](CCc2nc3cc(C(C)(C)C)ccc3[nH]2)C1 [pinometostat]
In short: as §1

[19] = compound: CC1=C(C(CC(=O)N1)C2=CC=C(C=C2)C(F)(F)F)C(=O)NC3=C(C=C4C(=C3)C=NN4)F
In short: as §1

[20] = compound: CC1=C(C2=C(C=C1)C(=O)C3=CC=CC=C3N2CCCN)C
In short: as §1

Measured: log2 fold change

SCRN3 (UniProt Q0VDG4)
inactive: [1] -0.029 | [2] 0.022 | [3] 0.064 | [4] 0.067 | [5] -0.027 | [6] 0.026 | [7] -0.02 | [8] 0.067 | [9] -0.024 | [10] 0.012 | [11] 0.051 | [12] 0.018 | [13] 0.002 | [14] 0.023 | [15] -0.04 | [16] 0.021 | [17] -0.003 | [18] -0.032 | [19] -0.001 | [20] -0.037

SCLY (UniProt Q96I15)
inactive: [1] 0 | [2] 0.028 | [3] 0.066 | [4] 0.036 | [5] -0.006 | [6] 0.014 | [7] 0.004 | [8] 0.009 | [9] 0.037 | [10] 0.028 | [11] -0.004 | [12] -0.002 | [13] -0.009 | [14] -0.028 | [15] -0.047 | [16] 0.048 | [17] 0.034 | [18] -0.046 | [19] 0.025 | [20] -0.008

SEC24D isoform 2 (UniProt O94855)
inactive: [1] -0.018 | [2] 0.049 | [3] 0.074 | [4] 0.006 | [5] -0.005 | [6] 0.043 | [7] -0.036 | [8] 0.034 | [9] 0.006 | [10] 0.011 | [11] -0.007 | [12] -0.013 | [13] 0.033 | [14] -0.013 | [15] -0.066 | [16] -0.016 | [17] -0.014 | [18] 0.024 | [19] 0.024 | [20] -0.008

SEC24C (UniProt P53992)
inactive: [1] -0.021 | [2] 0.087 | [3] 0.064 | [4] 0.016 | [5] 0.035 | [6] 0.033 | [7] 0.043 | [8] 0.016 | [9] -0.011 | [10] -0.01 | [11] -0.048 | [12] -0.049 | [13] -0.001 | [14] -0.003 | [15] -0.095 | [16] -0.079 | [17] -0.036 | [18] -0.019 | [19] 0 | [20] 0.036

SCAMP3 (UniProt O14828)
inactive: [1] 0.036 | [2] -0.056 | [3] -0.006 | [4] -0.01 | [5] -0.005 | [6] 0.041 | [7] -0.001 | [8] -0.037 | [9] 0.03 | [10] 0.068 | [11] 0.039 | [12] -0.017 | [13] -0.013 | [14] -0.054 | [15] 0.001 | [16] -0.012 | [17] 0 | [18] -0.065 | [19] 0.009 | [20] -0.06

SAP18 isoform 2 (UniProt O00422)
inactive: [1] -0.173 | [2] -0.131 | [3] -0.159 | [4] 0.104 | [5] -0.005 | [6] 0.098 | [7] -0.121 | [8] -0.059 | [9] -0.059 | [10] -0.105 | [11] 0.07 | [12] -0.002 | [13] -0.031 | [14] 0.05 | [15] 0.185 | [16] -0.031 | [17] 0.099 | [18] 0.036 | [19] -0.001 | [20] -0.12

S100P (UniProt P25815)
inactive: [1] -0.108 | [2] 0.034 | [3] 0.261 | [4] 0.051 | [5] 0.028 | [6] 0.053 | [7] 0.022 | [8] -0.082 | [9] -0.02 | [10] -0.089 | [11] -0.016 | [12] -0.039 | [13] -0.017 | [14] 0.01 | [15] 0.022 | [16] 0.05 | [17] -0.148 | [18] -0.139 | [19] -0.021 | [20] 0.315

SARG (UniProt Q9BW04)
inactive: [1] 0.027 | [2] -0.047 | [3] 0.012 | [4] 0.006 | [5] -0.004 | [6] 0.002 | [7] -0.055 | [8] 0.013 | [9] 0.046 | [10] 0.026 | [11] 0.048 | [12] 0.029 | [13] 0.041 | [14] -0.038 | [15] -0.024 | [16] 0.04 | [17] 0.056 | [18] 0.004 | [19] -0.013 | [20] 0.072

SCNM1 (UniProt Q9BWG6)
inactive: [1] 0.043 | [2] -0.13 | [3] -0.003 | [4] -0.027 | [5] -0.098 | [6] 0.12 | [7] 0.154 | [8] 0 | [9] 0.046 | [10] 0.024 | [11] -0.023 | [12] -0.114 | [13] -0.032 | [14] 0.028 | [15] 0.092 | [16] 0.06 | [17] 0.231 | [18] -0.091 | [19] -0.036 | [20] 0.055

RTN3 (UniProt O95197)
inactive: [1] -0.03 | [2] 0.015 | [3] -0.006 | [4] 0.005 | [5] -0.026 | [6] 0.019 | [7] -0.037 | [8] -0.009 | [9] -0.002 | [10] 0.039 | [11] 0.017 | [12] 0.005 | [13] -0.028 | [14] -0.065 | [15] 0.038 | [16] 0.013 | [17] -0.002 | [18] -0.036 | [19] 0.023 | [20] 0.013

SBNO1 (UniProt A3KN83)
inactive: [1] -0.047 | [2] 0.021 | [3] 0.075 | [4] 0.005 | [5] -0.006 | [6] 0.013 | [7] 0.002 | [8] 0.008 | [9] -0.001 | [10] 0.004 | [11] 0.003 | [12] -0.029 | [13] -0.003 | [14] -0.03 | [15] -0.018 | [16] 0.071 | [17] 0.027 | [18] -0.007 | [19] -0.001 | [20] 0.047

S100A13 (UniProt Q99584)
inactive: [1] 0.041 | [2] 0.012 | [3] 0.023 | [4] -0.023 | [5] 0.012 | [6] 0.028 | [7] 0.002 | [8] -0.002 | [9] 0.038 | [10] -0.007 | [11] 0.046 | [12] -0.012 | [13] -0.028 | [14] -0.083 | [15] -0.031 | [16] -0.057 | [17] -0.039 | [18] -0.033 | [19] 0.02 | [20] -0.031

Quoted from above (five entries):
SCAMP3 (UniProt O14828)
inactive: [1] 0.036 | [2] -0.056 | [3] -0.006 | [4] -0.01 | [5] -0.005 | [6] 0.041 | [7] -0.001 | [8] -0.037 | [9] 0.03 | [10] 0.068 | [11] 0.039 | [12] -0.017 | [13] -0.013 | [14] -0.054 | [15] 0.001 | [16] -0.012 | [17] 0 | [18] -0.065 | [19] 0.009 | [20] -0.06

SAP18 isoform 2 (UniProt O00422)
inactive: [1] -0.173 | [2] -0.131 | [3] -0.159 | [4] 0.104 | [5] -0.005 | [6] 0.098 | [7] -0.121 | [8] -0.059 | [9] -0.059 | [10] -0.105 | [11] 0.07 | [12] -0.002 | [13] -0.031 | [14] 0.05 | [15] 0.185 | [16] -0.031 | [17] 0.099 | [18] 0.036 | [19] -0.001 | [20] -0.12

S100P (UniProt P25815)
inactive: [1] -0.108 | [2] 0.034 | [3] 0.261 | [4] 0.051 | [5] 0.028 | [6] 0.053 | [7] 0.022 | [8] -0.082 | [9] -0.02 | [10] -0.089 | [11] -0.016 | [12] -0.039 | [13] -0.017 | [14] 0.01 | [15] 0.022 | [16] 0.05 | [17] -0.148 | [18] -0.139 | [19] -0.021 | [20] 0.315

SARG (UniProt Q9BW04)
inactive: [1] 0.027 | [2] -0.047 | [3] 0.012 | [4] 0.006 | [5] -0.004 | [6] 0.002 | [7] -0.055 | [8] 0.013 | [9] 0.046 | [10] 0.026 | [11] 0.048 | [12] 0.029 | [13] 0.041 | [14] -0.038 | [15] -0.024 | [16] 0.04 | [17] 0.056 | [18] 0.004 | [19] -0.013 | [20] 0.072

SCNM1 (UniProt Q9BWG6)
inactive: [1] 0.043 | [2] -0.13 | [3] -0.003 | [4] -0.027 | [5] -0.098 | [6] 0.12 | [7] 0.154 | [8] 0 | [9] 0.046 | [10] 0.024 | [11] -0.023 | [12] -0.114 | [13] -0.032 | [14] 0.028 | [15] 0.092 | [16] 0.06 | [17] 0.231 | [18] -0.091 | [19] -0.036 | [20] 0.055

Going on with the list.

S100PBP (UniProt Q96BU1)
inactive: [1] 0.103 | [2] -0.094 | [3] -0.049 | [4] 0.022 | [5] 0.098 | [6] 0.159 | [7] -0.106 | [8] -0.13 | [9] -0.057 | [10] -0.044 | [11] 0.085 | [12] -0.082 | [13] 0.126 | [14] 0.099 | [15] 0.092 | [16] 0.015 | [17] 0.113 | [18] -0.158 | [19] 0.055 | [20] -0.169

SAMHD1 (UniProt Q9Y3Z3)
inactive: [1] 0.052 | [2] -0.009 | [3] 0.026 | [4] 0 | [5] 0.029 | [6] 0.013 | [7] -0.017 | [8] 0.022 | [9] -0.017 | [10] 0.087 | [11] 0.003 | [12] 0.001 | [13] -0.049 | [14] -0.032 | [15] -0.015 | [16] -0.035 | [17] 0.021 | [18] -0.006 | [19] 0.05 | [20] 0.091

RWDD4 (UniProt Q6NW29)
inactive: [1] 0.006 | [2] 0.016 | [3] -0.027 | [4] -0.025 | [5] 0.095 | [6] 0.053 | [7] -0.129 | [8] 0.016 | [9] -0.019 | [10] -0.106 | [11] -0.069 | [12] 0.034 | [13] -0.081 | [14] 0.014 | [15] 0.01 | [16] -0.115 | [17] -0.006 | [18] 0.075 | [19] 0.01 | [20] -0.06

RTN4 (UniProt Q9NQC3)
inactive: [1] -0.036 | [2] -0.007 | [3] 0.019 | [4] 0.024 | [5] -0.023 | [6] 0.063 | [7] -0.024 | [8] -0.018 | [9] 0.004 | [10] 0.059 | [11] 0.028 | [12] 0.006 | [13] -0.011 | [14] -0.086 | [15] -0.011 | [16] 0.006 | [17] -0.026 | [18] -0.038 | [19] -0.031 | [20] -0.043

— the supplement of paper PMC10849652
